Results are given in words; binding and its absence hold for the method and conditions named. Binding seen in cells or lysates may run through a third protein.
Target: T1, Tbx1:3xHA (UniProt P70323)
T1 sequence: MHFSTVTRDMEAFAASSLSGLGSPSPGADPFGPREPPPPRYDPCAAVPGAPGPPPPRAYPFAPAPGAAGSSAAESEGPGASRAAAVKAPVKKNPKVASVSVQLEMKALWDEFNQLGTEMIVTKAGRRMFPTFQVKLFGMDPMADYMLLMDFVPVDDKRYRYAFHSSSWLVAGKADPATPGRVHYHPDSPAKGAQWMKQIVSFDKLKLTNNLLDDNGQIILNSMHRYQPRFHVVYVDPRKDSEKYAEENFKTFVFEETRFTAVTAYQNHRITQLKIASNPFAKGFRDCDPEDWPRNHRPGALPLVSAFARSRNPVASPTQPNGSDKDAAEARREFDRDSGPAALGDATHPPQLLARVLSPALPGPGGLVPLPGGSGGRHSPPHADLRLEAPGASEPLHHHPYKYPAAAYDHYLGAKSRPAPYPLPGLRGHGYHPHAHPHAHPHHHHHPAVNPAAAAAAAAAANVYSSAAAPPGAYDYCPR
Assay: co-IP; nuclear extracts of C2C12 cells transfected with Tbx1:3xHA, incubated overnight at 4°C with anti-HA antibodies (or control IgG) crosslinked to protein-G Dynabeads; washed with PBS-0.02% Tween 20; eluted with 0.1 M glycine pH 2.8; western blot with anti-HDAC1, anti-HDAC2 and anti-HA

Sequences of proteins named here, by UniProt entry; tags and fusion partners are left off.
UniProt O09106: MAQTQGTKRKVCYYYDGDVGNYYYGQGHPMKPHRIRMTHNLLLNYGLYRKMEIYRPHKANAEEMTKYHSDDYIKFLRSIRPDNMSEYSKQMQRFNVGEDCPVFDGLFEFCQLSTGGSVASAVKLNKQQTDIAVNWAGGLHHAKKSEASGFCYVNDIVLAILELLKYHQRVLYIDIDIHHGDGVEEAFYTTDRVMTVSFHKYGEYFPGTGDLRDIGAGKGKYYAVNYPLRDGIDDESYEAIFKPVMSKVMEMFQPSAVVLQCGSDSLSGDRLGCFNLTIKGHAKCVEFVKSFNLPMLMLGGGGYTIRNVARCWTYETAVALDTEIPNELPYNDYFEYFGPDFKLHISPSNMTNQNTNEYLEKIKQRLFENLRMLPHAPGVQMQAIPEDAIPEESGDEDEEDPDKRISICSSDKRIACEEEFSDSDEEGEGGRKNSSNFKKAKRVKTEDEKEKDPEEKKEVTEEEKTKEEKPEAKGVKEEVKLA
UniProt P70288: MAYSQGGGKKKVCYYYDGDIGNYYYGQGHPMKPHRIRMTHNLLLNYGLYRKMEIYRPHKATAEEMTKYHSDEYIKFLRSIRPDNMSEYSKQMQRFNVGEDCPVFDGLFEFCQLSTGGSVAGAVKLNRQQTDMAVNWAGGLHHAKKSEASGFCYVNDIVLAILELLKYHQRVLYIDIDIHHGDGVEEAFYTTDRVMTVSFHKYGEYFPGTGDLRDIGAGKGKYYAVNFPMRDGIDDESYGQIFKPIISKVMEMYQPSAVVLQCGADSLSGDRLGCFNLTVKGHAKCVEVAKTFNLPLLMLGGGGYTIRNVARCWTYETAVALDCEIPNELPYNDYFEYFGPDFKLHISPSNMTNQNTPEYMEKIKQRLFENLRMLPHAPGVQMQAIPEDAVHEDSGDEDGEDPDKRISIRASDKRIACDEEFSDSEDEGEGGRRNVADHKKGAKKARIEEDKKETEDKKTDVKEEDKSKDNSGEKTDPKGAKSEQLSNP

binding	Substance
no binding	HDAC1 (from UniProt O09106 1-482)
no binding	HDAC2 (from UniProt P70288 1-488)

— paper PMC6176997
